From the supplement of paper PMC12819154, “High-throughput peptide-centric local stability assay extends protein–ligand identification to membrane proteins, tissues and bacteria” (Nature Structural & Molecular Biology, 2025)
The other results are listed elsewhere or left out. Small differences around the control level are noise.

The chains behind the UniProt entries cited, without tags or fusion partners. Where a name states a change or a piece, a line headed by the entry shows the natural chain unless it says otherwise.
UniProt P35716: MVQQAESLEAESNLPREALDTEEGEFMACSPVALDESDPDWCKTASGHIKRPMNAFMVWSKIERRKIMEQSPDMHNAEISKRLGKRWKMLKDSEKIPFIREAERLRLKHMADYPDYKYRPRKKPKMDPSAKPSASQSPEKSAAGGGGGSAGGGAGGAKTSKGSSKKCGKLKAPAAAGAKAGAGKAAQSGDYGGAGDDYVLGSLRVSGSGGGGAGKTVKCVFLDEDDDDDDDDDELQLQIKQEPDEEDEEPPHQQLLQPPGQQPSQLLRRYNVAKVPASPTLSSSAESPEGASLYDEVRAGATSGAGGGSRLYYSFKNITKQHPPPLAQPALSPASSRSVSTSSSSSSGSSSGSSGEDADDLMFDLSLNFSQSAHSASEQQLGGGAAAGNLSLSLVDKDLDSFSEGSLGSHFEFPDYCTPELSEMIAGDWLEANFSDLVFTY
UniProt P41212: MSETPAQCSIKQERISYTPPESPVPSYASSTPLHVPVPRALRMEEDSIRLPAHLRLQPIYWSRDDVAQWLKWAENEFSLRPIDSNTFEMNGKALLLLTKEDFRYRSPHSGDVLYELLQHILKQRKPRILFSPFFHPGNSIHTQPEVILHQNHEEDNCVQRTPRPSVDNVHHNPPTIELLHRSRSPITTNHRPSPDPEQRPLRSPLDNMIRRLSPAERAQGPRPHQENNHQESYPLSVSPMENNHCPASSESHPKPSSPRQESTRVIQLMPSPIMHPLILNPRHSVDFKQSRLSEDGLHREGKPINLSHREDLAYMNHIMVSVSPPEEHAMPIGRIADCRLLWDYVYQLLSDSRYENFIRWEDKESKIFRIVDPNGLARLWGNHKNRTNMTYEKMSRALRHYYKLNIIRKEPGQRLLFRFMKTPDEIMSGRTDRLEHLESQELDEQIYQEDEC
UniProt P43304: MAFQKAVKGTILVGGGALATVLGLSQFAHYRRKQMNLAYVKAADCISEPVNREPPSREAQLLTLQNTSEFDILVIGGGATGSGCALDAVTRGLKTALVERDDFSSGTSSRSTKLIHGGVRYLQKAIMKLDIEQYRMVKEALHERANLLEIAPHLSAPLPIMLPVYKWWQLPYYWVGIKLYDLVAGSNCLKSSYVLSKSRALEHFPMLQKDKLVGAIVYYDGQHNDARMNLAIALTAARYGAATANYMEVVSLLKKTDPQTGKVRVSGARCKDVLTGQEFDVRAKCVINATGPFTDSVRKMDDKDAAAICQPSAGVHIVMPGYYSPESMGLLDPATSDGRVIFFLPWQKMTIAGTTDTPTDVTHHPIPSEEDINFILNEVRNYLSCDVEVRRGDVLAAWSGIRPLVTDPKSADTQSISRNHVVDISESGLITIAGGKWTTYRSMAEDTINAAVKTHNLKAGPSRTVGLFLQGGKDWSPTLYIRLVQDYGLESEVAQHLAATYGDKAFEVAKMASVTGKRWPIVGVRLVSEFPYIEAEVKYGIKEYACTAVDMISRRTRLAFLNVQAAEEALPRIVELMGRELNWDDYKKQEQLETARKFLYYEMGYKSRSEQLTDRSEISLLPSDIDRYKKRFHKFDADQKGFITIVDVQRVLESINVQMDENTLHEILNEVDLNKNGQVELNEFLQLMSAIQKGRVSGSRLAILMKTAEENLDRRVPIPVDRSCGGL
UniProt P28838: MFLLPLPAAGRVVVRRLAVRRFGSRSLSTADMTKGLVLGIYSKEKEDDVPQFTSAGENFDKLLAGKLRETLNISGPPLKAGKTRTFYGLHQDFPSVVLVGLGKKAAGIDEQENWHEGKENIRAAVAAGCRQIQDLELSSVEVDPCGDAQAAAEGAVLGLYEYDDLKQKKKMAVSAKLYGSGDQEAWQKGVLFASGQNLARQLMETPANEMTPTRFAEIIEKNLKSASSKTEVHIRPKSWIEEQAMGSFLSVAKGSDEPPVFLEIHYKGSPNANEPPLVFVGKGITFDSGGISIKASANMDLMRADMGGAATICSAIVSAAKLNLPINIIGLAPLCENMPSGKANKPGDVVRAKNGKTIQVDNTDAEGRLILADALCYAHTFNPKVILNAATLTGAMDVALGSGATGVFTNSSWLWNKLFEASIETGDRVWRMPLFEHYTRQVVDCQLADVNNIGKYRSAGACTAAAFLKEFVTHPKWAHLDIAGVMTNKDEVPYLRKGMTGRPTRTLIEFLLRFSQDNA
UniProt P45983: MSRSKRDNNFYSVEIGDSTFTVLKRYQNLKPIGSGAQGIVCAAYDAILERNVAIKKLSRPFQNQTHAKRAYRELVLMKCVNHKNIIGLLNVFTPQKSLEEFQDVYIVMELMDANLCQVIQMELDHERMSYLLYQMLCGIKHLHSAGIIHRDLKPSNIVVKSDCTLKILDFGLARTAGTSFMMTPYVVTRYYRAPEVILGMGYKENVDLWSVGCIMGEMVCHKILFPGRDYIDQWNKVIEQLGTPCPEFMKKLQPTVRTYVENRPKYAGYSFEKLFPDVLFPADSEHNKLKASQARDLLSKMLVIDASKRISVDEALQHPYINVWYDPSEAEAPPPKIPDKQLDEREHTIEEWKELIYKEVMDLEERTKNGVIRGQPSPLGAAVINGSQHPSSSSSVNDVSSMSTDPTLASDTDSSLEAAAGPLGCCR
UniProt P42892: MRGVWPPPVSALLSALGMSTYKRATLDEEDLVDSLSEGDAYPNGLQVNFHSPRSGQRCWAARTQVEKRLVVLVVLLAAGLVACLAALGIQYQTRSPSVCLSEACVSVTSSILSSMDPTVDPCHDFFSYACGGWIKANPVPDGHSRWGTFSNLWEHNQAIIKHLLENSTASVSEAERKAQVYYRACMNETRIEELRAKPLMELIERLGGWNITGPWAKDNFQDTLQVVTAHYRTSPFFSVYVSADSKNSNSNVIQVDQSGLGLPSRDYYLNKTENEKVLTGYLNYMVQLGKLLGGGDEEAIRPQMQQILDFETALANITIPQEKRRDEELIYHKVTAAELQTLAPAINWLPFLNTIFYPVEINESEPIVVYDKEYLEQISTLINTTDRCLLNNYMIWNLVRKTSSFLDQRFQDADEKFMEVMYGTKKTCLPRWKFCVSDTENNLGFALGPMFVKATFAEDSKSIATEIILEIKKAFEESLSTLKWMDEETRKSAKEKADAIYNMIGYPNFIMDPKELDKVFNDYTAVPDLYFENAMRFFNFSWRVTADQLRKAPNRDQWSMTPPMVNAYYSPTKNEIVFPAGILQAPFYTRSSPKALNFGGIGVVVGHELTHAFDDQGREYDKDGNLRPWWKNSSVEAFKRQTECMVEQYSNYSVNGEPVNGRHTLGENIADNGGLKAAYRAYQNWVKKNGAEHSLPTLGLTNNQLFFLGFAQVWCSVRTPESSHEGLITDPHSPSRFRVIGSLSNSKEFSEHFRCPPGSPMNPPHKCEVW
UniProt P35236: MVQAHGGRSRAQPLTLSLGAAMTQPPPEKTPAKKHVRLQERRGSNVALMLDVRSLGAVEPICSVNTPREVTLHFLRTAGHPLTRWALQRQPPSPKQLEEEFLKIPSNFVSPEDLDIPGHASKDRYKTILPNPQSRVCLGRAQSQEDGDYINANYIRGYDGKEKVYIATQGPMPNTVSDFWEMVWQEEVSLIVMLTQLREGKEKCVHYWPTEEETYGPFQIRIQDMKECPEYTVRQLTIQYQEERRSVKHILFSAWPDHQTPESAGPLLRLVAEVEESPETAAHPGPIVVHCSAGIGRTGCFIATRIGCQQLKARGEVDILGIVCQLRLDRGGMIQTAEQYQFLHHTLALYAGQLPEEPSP
UniProt P31327: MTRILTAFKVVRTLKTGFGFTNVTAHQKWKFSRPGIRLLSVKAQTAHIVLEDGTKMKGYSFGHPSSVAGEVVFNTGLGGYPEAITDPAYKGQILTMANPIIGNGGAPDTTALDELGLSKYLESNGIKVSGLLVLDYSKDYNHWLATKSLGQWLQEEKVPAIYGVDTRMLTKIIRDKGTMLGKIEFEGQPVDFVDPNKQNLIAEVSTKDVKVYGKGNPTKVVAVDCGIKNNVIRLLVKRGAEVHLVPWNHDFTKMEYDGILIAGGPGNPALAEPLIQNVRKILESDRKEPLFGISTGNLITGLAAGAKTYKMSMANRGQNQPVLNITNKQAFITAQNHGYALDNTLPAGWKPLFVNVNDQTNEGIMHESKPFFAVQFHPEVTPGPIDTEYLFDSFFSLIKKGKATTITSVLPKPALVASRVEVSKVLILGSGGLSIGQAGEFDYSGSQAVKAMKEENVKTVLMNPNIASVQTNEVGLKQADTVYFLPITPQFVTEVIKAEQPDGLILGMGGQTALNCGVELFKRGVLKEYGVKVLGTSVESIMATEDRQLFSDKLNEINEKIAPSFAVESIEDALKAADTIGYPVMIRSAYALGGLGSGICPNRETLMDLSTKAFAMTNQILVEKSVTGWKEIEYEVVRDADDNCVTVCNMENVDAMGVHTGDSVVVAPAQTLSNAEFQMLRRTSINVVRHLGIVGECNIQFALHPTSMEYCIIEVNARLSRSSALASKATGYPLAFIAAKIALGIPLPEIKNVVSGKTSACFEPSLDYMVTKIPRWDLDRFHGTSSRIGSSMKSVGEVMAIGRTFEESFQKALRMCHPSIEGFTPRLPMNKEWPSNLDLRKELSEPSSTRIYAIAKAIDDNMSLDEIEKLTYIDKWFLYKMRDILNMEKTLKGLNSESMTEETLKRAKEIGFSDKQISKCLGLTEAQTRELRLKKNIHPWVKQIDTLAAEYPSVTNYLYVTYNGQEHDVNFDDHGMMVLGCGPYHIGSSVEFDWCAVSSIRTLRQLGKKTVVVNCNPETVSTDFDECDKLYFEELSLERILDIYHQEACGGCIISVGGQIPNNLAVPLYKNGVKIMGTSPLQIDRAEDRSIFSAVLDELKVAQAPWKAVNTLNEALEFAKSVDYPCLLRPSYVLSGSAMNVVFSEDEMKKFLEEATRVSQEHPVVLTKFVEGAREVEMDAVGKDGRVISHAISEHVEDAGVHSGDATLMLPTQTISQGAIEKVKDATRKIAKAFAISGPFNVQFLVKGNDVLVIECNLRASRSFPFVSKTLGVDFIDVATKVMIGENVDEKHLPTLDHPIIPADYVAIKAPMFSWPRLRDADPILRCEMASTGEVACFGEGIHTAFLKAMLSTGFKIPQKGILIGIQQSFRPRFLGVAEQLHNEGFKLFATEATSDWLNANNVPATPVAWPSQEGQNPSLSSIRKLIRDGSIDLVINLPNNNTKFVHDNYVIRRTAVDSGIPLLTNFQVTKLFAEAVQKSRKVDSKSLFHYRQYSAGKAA
UniProt P43357, whole entry: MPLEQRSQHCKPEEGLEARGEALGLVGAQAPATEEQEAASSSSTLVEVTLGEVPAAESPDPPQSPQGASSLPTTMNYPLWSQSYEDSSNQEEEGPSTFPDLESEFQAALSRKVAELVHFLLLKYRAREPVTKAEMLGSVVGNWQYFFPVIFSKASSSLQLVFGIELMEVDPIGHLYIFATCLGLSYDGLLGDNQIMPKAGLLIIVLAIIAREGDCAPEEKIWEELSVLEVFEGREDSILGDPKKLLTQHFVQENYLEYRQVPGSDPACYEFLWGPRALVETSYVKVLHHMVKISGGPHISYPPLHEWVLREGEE
UniProt P30405: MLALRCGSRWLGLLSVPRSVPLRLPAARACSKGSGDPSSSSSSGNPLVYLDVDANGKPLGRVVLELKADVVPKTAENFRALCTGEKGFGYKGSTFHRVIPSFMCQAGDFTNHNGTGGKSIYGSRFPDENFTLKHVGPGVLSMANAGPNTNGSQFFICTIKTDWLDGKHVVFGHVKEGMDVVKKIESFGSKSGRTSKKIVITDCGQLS
UniProt P30048: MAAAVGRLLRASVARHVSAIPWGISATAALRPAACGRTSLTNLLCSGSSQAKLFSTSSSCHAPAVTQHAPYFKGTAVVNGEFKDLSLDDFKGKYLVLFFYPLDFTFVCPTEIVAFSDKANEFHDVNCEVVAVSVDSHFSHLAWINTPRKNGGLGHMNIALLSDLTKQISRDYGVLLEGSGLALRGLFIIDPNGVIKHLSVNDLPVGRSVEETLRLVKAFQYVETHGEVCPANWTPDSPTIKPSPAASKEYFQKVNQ
UniProt P31939: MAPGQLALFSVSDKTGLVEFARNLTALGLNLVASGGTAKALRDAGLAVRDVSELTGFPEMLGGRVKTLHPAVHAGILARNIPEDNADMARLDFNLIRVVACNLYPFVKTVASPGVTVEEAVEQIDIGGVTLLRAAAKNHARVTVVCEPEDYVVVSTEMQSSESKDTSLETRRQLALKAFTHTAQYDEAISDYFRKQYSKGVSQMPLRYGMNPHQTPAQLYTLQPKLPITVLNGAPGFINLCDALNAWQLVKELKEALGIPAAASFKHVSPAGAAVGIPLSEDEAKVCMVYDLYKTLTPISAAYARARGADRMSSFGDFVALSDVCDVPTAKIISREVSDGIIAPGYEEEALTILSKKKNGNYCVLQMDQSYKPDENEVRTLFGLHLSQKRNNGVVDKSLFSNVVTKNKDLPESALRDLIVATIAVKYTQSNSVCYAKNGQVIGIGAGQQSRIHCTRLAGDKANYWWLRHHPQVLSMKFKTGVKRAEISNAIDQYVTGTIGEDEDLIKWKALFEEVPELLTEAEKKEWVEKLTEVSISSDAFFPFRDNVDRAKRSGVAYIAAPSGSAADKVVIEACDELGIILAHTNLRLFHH

What follows are targets tested with Cc1nc(Nc2ncc(C(=O)Nc3c(C)cccc3Cl)s2)cc(N2CCN(CCO)CC2)n1 [dasatinib] (assay: log2 fold change of tryptic peptide abundance, ligand vs vehicle (limited proteolysis) (log2 ratio); higher = more trypsin-susceptible (destabilized)). Details: ligand concentration: 5 uM; sample: K562 cleared lysate.

Row | Target | log2 fold change
1 | SOX11 (peptide sequence: APAAAGAK, peptide start residue: 172) (UniProt P35716) | -0.0188
2 | SDHA (peptide sequence: GEGGILINSQGER, peptide start residue: 313) (UniProt P31040) | -0.546
3 | UniProt P41250 (peptide sequence: APQVDVDK, peptide start residue: 86) | 0.199
4 | TRIM23 (peptide sequence: ISEAHSELAK, peptide start residue: 487) (UniProt P36406) | 0.107
5 | GNL1 (peptide sequence: REEQTDTSDGESVTHHIRR, peptide start residue: 44) (UniProt P36915) | 0.975
6 | GTF2H1 (peptide sequence: AKLQESIEYEDLGKNNSVK, peptide start residue: 352) (UniProt P32780) | 0.499
7 | HMOX2 (peptide sequence: ETLEDGFPVHDGK, peptide start residue: 247) (UniProt P30519) | 0.305
8 | ETV6 (peptide sequence: SPLDNMIR, peptide start residue: 203) (UniProt P41212) | -0.225
9 | TALDO1 (peptide sequence: SYEPLEDPGVK, peptide start residue: 205) (UniProt P37837) | 0.11
10 | GPD2 (peptide sequence: LVGAIVYYDGQHNDAR, peptide start residue: 212) (UniProt P43304) | -0.509
11 | LAP3 (peptide sequence: ETLNISGPPLK, peptide start residue: 69) (UniProt P28838) | -0.922
12 | ARID4A (peptide sequence: NLNFEQHFER, peptide start residue: 897) (UniProt P29374) | 0.784
13 | UniProt P45983 (peptide sequence: LFPDVLFPADSEHNKLK, peptide start residue: 274) | 0.126
14 | RPL4 (peptide sequence: LRVDKAAAAAAALQAK, peptide start residue: 349) (UniProt P36578) | 0.161
15 | ZNF76 (peptide sequence: VLHDSQIPR, peptide start residue: 145) (UniProt P36508) | -0.182
16 | ECE1 (peptide sequence: FMEVMYGTK, peptide start residue: 417) (UniProt P42892) | -0.218
17 | PTPN7 (peptide sequence: GSNVALMLDVR, peptide start residue: 43) (UniProt P35236) | 0.0983
18 | UniProt P45984 (peptide sequence: EVMDWEER, peptide start residue: 359) | 0.181

Quoted at random: two entries already listed.
Row | Target | log2 fold change
11 | LAP3 (peptide sequence: ETLNISGPPLK, peptide start residue: 69) (UniProt P28838) | -0.922
6 | GTF2H1 (peptide sequence: AKLQESIEYEDLGKNNSVK, peptide start residue: 352) (UniProt P32780) | 0.499

(further entries)

Row | Target | log2 fold change
19 | HIBADH (peptide sequence: LLGAASGLRYWSR, peptide start residue: 7) (UniProt P31937) | 0.0432
20 | CPS1 (peptide sequence: GILIGIQQSFRPR, peptide start residue: 1361) (UniProt P31327) | -0.0568
21 | MSH2 (peptide sequence: DKQMFHIITGPNMGGK, peptide start residue: 660) (UniProt P43246) | -0.506
22 | AKT2 (peptide sequence: LPFYNQDHER, peptide start residue: 348) (UniProt P31751) | 0.403
23 | MPI (peptide sequence: KVVVEQLNLLVK, peptide start residue: 207) (UniProt P34949) | 0.292
24 | FDFT1 (peptide sequence: CLGHPEEFYNLVR, peptide start residue: 6) (UniProt P37268) | 0.114
25 | MAGEA3 (peptide sequence: SQHCKPEEGLEAR, peptide start residue: 7) (UniProt P43357) | 0.0998
26 | ADD2 (peptide sequence: EQNRQDVK, peptide start residue: 504) (UniProt P35612) | 0.816
27 | RPL22 (peptide sequence: SKITVTSEVPFSKR, peptide start residue: 68) (UniProt P35268) | -0.0458
28 | PPIF (peptide sequence: TSKKIVITDCGQLS, peptide start residue: 194) (UniProt P30405) | 0.113
29 | HNRNPH1 (peptide sequence: THYDPPR, peptide start residue: 193) (UniProt P31943) | -0.0516
30 | UniProt P30049 (peptide sequence: IEANEALVK, peptide start residue: 157) | -0.0427
31 | PPP1CC (peptide sequence: KPNATRPVTPPR, peptide start residue: 303) (UniProt P36873) | 0.196
32 | PRDX3 (peptide sequence: NGGLGHMNIALLSDLTK, peptide start residue: 150) (UniProt P30048) | 0.213
33 | NF2 (peptide sequence: AQITEEEAK, peptide start residue: 388) (UniProt P35240) | 0.242
34 | UniProt P42126 (peptide sequence: SLQMYLER, peptide start residue: 289) | -0.305
35 | MCM4 (peptide sequence: THIDVIHYR, peptide start residue: 414) (UniProt P33991) | -0.566
36 | ATIC (peptide sequence: TLHPAVHAGILAR, peptide start residue: 67) (UniProt P31939) | -0.0732
